Measurements taken from PMC7883825.
Results are given in words; binding and its absence hold for the method and conditions named. Binding seen in cells or lysates may run through a third protein. Some binding calls cover weakened binding; strength is not graded here. Blank lines part the entries; values can stand above or below the molecule they belong to.

Protein sequences, listed by entry. Tags and fused reporters are not part of them.
UniProt Q9UIV1: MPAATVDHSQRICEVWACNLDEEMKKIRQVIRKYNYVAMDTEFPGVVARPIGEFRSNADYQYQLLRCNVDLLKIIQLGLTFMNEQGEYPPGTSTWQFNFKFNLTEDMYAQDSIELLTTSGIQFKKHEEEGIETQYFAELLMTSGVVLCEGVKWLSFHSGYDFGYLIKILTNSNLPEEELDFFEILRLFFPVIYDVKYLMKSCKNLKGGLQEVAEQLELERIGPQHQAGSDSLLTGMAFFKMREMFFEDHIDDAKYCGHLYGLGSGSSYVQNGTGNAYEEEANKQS

Tests used:
[1] = biological target: T1, RNF219 (endogenous) (human (endogenous in HEK-293)) (UniProt Q5W0B1); assay: co-IP; endogenous co-IP from HEK-293 cells with antibody to RNF219 or CNOT7 and protein A beads, 300 mM NaCl, overnight at 4°C
T1 sequence: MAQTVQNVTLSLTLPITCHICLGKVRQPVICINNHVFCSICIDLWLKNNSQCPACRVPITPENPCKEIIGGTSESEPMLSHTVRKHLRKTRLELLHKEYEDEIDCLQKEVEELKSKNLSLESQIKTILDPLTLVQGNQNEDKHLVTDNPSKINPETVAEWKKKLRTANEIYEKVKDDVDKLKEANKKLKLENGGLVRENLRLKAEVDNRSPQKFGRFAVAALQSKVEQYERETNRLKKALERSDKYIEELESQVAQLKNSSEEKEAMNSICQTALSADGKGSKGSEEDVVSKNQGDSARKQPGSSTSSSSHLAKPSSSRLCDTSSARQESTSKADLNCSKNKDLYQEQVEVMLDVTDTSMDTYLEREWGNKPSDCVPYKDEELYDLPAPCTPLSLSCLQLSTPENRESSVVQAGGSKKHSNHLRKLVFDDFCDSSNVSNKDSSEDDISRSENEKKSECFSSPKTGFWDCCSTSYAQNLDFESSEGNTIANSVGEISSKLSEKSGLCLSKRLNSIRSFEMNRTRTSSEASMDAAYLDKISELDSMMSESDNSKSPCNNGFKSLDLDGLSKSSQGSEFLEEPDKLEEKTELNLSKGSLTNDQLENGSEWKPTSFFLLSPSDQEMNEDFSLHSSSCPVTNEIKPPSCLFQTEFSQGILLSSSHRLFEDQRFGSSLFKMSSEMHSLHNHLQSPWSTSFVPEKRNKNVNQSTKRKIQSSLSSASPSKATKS

[2] = biological target: CNOT7 (human (endogenous in HEK-293)) (UniProt Q9UIV1); assay: as above

binding [1]: binds
Molecule: CNOT7 (from UniProt Q9UIV1 1-285)

binding [2]: binds
B1: RNF219 (endogenous) (protein, UniProt Q5W0B1 1-726)
chain: T1 sequence
